{"sequences": {"note": "Protein sequences, listed by entry. Tags and fused reporters are not part of them.", "UniProt Q7KNM2": "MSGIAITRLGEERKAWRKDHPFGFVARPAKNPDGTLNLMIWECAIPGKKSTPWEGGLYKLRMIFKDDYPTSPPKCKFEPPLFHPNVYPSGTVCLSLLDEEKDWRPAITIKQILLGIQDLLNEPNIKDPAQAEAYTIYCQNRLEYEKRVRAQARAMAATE", "UniProt Q8IN94": "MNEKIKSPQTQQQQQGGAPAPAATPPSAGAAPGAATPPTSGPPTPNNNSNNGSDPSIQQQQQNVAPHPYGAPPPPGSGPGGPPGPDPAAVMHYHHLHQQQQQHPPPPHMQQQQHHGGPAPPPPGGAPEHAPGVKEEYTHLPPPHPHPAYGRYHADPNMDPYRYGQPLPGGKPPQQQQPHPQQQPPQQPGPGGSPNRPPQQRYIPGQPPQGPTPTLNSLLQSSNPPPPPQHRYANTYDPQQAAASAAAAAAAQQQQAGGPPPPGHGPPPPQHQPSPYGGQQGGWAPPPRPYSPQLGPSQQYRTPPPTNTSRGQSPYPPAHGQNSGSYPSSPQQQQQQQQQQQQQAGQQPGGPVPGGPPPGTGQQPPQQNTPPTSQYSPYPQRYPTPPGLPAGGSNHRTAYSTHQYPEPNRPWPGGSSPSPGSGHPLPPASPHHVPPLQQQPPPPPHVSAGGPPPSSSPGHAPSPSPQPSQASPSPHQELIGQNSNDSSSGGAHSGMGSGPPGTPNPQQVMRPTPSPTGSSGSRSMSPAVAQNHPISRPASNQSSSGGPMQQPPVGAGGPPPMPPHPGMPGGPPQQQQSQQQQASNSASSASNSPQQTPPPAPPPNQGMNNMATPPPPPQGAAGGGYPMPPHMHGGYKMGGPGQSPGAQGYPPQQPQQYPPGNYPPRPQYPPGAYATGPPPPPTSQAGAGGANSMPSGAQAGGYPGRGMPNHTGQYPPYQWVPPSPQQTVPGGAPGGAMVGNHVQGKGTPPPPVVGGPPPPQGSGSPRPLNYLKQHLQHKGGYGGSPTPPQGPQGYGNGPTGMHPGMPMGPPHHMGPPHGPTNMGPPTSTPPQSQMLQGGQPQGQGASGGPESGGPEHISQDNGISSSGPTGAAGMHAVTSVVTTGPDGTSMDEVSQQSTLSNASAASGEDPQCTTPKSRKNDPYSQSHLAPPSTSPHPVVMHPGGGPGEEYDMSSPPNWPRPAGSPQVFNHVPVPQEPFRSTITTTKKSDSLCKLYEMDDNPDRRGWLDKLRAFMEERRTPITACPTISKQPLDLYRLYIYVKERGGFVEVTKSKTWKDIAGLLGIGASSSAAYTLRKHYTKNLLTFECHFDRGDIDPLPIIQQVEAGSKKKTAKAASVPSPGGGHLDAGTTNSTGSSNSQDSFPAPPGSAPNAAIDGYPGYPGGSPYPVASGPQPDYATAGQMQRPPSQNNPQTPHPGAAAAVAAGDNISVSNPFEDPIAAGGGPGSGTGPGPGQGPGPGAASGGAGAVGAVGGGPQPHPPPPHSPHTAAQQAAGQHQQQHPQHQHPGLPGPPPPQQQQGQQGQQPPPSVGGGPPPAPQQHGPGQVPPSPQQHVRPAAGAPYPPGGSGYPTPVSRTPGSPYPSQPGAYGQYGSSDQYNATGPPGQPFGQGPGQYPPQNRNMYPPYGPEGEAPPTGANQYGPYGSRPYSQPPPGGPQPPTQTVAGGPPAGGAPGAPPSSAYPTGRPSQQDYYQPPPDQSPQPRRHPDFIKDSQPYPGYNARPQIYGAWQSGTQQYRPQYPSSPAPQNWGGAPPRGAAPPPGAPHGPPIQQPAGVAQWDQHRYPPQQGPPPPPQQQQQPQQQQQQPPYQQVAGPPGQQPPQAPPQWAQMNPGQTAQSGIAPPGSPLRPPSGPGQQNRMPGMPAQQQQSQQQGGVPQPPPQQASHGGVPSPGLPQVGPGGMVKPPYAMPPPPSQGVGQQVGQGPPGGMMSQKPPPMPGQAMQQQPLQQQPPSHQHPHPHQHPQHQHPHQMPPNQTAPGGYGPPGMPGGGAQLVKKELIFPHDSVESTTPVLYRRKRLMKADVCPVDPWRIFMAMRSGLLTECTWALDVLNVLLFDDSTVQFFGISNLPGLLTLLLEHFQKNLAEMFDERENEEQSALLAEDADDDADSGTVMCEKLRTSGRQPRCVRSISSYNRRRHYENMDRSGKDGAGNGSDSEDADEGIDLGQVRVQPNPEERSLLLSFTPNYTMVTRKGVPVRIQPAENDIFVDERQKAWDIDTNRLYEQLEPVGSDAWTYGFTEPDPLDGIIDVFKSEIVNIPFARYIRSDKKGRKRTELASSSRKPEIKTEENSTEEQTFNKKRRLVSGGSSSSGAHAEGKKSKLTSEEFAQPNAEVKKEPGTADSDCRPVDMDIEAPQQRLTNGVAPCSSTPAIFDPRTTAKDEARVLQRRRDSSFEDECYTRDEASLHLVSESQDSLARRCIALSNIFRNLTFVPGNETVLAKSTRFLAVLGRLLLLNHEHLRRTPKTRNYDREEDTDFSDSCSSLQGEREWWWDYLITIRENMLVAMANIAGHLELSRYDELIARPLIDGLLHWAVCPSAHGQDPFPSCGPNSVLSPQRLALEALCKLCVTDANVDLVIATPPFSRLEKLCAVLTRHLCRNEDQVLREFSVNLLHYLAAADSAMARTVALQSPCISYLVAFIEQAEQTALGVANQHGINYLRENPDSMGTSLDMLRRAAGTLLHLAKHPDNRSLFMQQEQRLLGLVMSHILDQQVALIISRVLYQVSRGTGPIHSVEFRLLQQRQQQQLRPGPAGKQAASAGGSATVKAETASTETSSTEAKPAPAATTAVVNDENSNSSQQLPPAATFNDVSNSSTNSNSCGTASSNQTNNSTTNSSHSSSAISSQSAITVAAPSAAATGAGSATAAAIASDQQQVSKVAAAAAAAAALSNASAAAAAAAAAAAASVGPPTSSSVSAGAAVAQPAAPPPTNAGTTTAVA"}, "source": "paper PMC3631182", "key": {"[1]": {"biological_target": "GST-Ubc9 fusion protein (Drosophila Ubc9) (Drosophila melanogaster) (UniProt Q7KNM2)", "assay": "pull-down; 10 µg GST-Ubc9 as bait, 500 µg soluble nuclear fraction from 3-21 hour embryos; extensive stringent washing; Western with TnaA_(XSPRING) antibody; only the target purified"}, "[2]": {"biological_target": "Osa, subunit of the BRM chromatin remodeling complex, native protein of Drosophila embryos (Drosophila melanogaster (endogenous in Ore-R embryos)) (UniProt Q8IN94)", "assay": "co-IP; immunoprecipitation with Osa antibodies (1 µg) from total protein extract of 3-21 hour embryos (3.7 mg); two preclearing steps, Buffer PD; irrelevant antibody as mock"}}, "note": "These are yes or no findings as the source states them, for the method shown. Binding seen in cells or lysates may run through a third protein.", "data": [{"binder": "Cdk7, native protein of Drosophila embryos (protein, UniProt Q24216 1-353) MLPNANDKTERYAKLSFLGEGQFATVYKARDTVTNQIVAVKKIKKGSREDARDGINRTALREIKILQELQHENIIGLVDVFGQLSNVSLVFDFMDTDLEVIIKDNKIILTQANIKAYAIMTLKGLEYLHLNWILHRDLKPNNLLVNSDGILKIGDFGLAKSFGSPNRIYTHHVVTRWYRSPELLFGARQYGTGVDMWAVGCILAELMLRVPFMPGDSDLDQLTRIFSTLGTPTEAEWPHLSKLHDYLQFRNFPGTPLDNIFTAAGNDLIHLMQRLFAMNPLRRVSCREALSMPYFANKPAPTVGPKLPMPSAILAAKEGANPQTGDTKPALKRKLVETTVRGNGLAQKKRLQF", "values": [{"measurement": "binding", "setting": "[1]", "result": "no binding"}, {"measurement": "binding", "setting": "[2]", "result": "no binding"}]}]}
